The text below walks through data of publication PMC9449597.

Amino acid sequences for entries named in this document (tags omitted). A change or cut given only in a name is not applied to a line headed by its entry. Residues count along the entry.
UniProt P02769, residues 25-607: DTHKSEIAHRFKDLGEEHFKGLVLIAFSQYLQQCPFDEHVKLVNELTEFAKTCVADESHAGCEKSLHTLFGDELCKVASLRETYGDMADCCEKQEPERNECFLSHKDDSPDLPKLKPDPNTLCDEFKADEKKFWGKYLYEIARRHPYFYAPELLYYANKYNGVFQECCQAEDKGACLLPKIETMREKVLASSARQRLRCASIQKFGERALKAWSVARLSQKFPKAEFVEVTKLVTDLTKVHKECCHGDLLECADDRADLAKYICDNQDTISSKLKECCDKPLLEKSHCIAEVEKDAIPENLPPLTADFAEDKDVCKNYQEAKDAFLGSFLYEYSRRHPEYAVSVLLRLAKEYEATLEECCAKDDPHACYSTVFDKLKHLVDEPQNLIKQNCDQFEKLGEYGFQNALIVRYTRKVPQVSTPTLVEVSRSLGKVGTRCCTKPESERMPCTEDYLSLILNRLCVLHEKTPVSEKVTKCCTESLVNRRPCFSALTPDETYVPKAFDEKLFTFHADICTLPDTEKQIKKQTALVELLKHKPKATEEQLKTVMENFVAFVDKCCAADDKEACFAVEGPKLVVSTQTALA
UniProt Q8N539: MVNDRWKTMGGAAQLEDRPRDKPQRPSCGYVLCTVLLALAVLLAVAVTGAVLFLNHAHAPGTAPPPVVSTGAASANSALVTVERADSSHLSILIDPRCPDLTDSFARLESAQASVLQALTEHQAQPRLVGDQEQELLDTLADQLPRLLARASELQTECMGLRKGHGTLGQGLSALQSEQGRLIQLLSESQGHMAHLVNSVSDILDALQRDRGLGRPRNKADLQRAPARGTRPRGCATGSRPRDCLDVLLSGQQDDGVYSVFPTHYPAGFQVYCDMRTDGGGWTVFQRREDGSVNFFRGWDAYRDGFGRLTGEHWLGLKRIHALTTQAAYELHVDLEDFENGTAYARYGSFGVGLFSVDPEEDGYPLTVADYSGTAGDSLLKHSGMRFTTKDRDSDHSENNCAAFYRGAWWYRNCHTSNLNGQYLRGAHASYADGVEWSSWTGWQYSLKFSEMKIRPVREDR

No constants are given. Whether binding was seen depends on the method and setting. Binding can be weak; no strength is given.

This experiment has as its target acetylated BSA (bovine (from the name BSA)) (UniProt P02769). The experiment in a line: ELISA; competitive ELISA: recombinant FIBCD1 FReD incubated with acetylated BSA and increasing concentrations of CS-4S or CS-6S; as described in Schlosser et al, 2009; both purified.

With “recombinant FIBCD1 FReD (fibrinogen-related domain of Fibrinogen C Domain Containing 1) (from UniProt Q8N539) (domain or fragment)”, the binding entry is on record as “binds”.
